Measurements taken from PMC8504976.

Protein sequences, listed by entry. Tags and fused reporters are not part of them. Lines headed by an entry give the natural chain unless they say otherwise; changes in a name come on top.
UniProt P35683: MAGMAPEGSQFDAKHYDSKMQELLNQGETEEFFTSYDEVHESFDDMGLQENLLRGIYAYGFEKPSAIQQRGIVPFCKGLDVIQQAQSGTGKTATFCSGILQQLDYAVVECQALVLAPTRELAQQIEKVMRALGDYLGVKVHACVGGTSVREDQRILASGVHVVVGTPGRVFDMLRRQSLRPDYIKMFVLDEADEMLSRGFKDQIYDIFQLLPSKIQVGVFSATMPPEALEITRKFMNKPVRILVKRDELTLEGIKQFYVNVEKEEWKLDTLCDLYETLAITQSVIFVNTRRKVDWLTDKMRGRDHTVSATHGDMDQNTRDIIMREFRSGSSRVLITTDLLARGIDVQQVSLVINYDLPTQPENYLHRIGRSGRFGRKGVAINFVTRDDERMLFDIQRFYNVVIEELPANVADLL

Columns and labels:
[1] = target: T1, cLUC-OsATG5 (rice (Oryza sativa)) (UniProt Q6ZGL4); test: split reporter; firefly luciferase complementation imaging (LCI) in agroinfiltrated N. benthamiana leaves; 1 mM luciferin at 72 hpi; cooled CCD imaging
T1 sequence: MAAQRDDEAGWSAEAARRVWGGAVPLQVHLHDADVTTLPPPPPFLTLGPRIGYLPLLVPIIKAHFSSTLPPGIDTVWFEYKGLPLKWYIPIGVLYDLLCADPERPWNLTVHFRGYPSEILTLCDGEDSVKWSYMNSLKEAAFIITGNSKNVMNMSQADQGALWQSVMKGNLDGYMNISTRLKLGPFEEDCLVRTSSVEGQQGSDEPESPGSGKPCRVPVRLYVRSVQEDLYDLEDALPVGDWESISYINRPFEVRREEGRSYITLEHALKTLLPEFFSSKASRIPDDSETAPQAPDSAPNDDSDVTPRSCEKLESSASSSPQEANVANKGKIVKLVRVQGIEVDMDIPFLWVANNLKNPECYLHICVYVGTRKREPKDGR

[2] = target: T2, OsATG5-nYFP (rice (Oryza sativa)) (UniProt Q6ZGL4); test: split reporter; BiFC (split YFP) in epidermal cells of N. benthamiana leaves, Agrobacterium infiltration at OD600 = 0.5, confocal microscopy 36–72 h after infiltration
T2 sequence: T1 sequence

| binding [1] | binding [2] | Substance |
| --- | --- | --- |
| binds | – | nLUC-OseIF4A (from UniProt P35683) |
| – | binds | cYFP-OseIF4A (from UniProt P35683) |

Results are given in words; binding and its absence hold for the method and conditions named. Binding seen in cells or lysates may run through a third protein. Binding calls can cover weak binding; strength is not graded here. Tags and fused reporters may be left off the sequences shown.
